Laboratory results as given in ChEMBL document CHEMBL5674883, “The Heterochromatin Landscape in Migrating Cells and the Importance of H3K27me3 for Associated Transcriptome Alterations” (Cells, 2018).
The source gives many values for each of these; only a part stands here.

Sequences of proteins named here, by UniProt entry; tags and fusion partners are left off.
UniProt Q61188, whole entry: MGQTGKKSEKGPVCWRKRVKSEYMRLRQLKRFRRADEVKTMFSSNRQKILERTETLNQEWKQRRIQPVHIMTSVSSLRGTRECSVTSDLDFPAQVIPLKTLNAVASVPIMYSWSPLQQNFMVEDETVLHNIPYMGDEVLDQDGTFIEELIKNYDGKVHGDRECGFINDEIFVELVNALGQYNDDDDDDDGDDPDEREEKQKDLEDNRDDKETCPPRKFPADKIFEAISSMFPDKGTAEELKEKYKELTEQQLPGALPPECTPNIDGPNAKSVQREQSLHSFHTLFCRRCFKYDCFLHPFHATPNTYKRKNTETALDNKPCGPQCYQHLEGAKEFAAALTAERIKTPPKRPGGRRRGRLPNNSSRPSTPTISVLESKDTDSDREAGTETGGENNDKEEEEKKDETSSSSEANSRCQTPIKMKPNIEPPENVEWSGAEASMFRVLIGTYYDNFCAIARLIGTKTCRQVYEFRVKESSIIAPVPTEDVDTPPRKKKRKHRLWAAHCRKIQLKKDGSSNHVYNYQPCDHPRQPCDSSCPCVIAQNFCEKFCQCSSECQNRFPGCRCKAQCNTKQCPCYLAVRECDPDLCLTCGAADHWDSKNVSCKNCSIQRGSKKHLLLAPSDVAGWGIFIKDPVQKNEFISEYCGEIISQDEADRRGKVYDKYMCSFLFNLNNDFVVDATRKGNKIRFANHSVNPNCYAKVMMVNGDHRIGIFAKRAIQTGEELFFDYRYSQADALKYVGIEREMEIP

Columns and labels:
Format in all cases: cell-based
[1] = target: T1, RNA polymerase II (Mus musculus) (UniProt P08775+Q8CFI7+P97760+A0A3Q4L2S8+Q80UW8+P61219+P62488+Q923G2+P60898+O08740+Q63871+P62876); experiment: Inhibition of RNA polymerase II in mouse B16-F1 migrating cells assessed as fold change in Ywhaz-RNA stability at 0.1 mM measured by ChIP-seq analysis relative to control cells
[2] = target: T1, RNA polymerase II (Mus musculus); experiment: Inhibition of RNA polymerase II in mouse B16-F1 migrating cells assessed as fold change in Atrx-RNA stability at 0.1 mM measured by ChIP-seq analysis relative to control cells
[3] = target: T1, RNA polymerase II (Mus musculus); experiment: Inhibition of RNA polymerase II in mouse B16-F1 migrating cells assessed as fold change in Brcc3-RNA stability at 0.1 mM measured by ChIP-seq analysis relative to control cells
[4] = target: T1, RNA polymerase II (Mus musculus); experiment: Inhibition of RNA polymerase II in mouse B16-F1 migrating cells assessed as fold change in Tmem234-RNA stability at 0.1 mM measured by ChIP-seq analysis relative to control cells
[5] = target: T1, RNA polymerase II (Mus musculus); experiment: Inhibition of RNA polymerase II in mouse B16-F1 migrating cells assessed as fold change in Ftl1-RNA stability at 0.1 mM measured by ChIP-seq analysis relative to control cells
[6] = target: T1, RNA polymerase II (Mus musculus); experiment: Inhibition of RNA polymerase II in mouse B16-F1 migrating cells assessed as fold change in Hnrnph1-RNA stability at 0.1 mM measured by ChIP-seq analysis relative to control cells
[7] = target: T1, RNA polymerase II (Mus musculus); experiment: Inhibition of RNA polymerase II in mouse B16-F1 migrating cells assessed as fold change in 4930503L19Rik-RNA stability at 0.1 mM measured by ChIP-seq analysis relative to control cells
[8] = target: T1, RNA polymerase II (Mus musculus); experiment: Inhibition of RNA polymerase II in mouse B16-F1 migrating cells assessed as fold change in Jade1-RNA stability at 0.1 mM measured by ChIP-seq analysis relative to control cells
[9] = target: T1, RNA polymerase II (Mus musculus); experiment: Inhibition of RNA polymerase II in mouse B16-F1 migrating cells assessed as fold change in Palm-RNA stability at 0.1 mM measured by ChIP-seq analysis relative to control cells
[10] = target: T1, RNA polymerase II (Mus musculus); experiment: Inhibition of RNA polymerase II in mouse B16-F1 migrating cells assessed as fold change in Bcas3-RNA stability at 0.1 mM measured by ChIP-seq analysis relative to control cells
[11] = target: T1, RNA polymerase II (Mus musculus); experiment: Inhibition of RNA polymerase II in mouse B16-F1 migrating cells assessed as fold change in Loxl2-RNA stability at 0.1 mM measured by ChIP-seq analysis relative to control cells
[12] = target: T1, RNA polymerase II (Mus musculus); experiment: Inhibition of RNA polymerase II in mouse B16-F1 migrating cells assessed as fold change in Tuba1a-RNA stability at 0.1 mM measured by ChIP-seq analysis relative to control cells
[13] = target: T1, RNA polymerase II (Mus musculus); experiment: Inhibition of RNA polymerase II in mouse B16-F1 migrating cells assessed as fold change in Angpt2-RNA stability at 0.1 mM measured by ChIP-seq analysis relative to control cells
[14] = target: T1, RNA polymerase II (Mus musculus); experiment: Inhibition of RNA polymerase II in mouse B16-F1 migrating cells assessed as fold change in Fndc10-RNA stability at 0.1 mM measured by ChIP-seq analysis relative to control cells
[15] = target: T1, RNA polymerase II (Mus musculus); experiment: Inhibition of RNA polymerase II in mouse B16-F1 migrating cells assessed as fold change in Xrcc4-RNA stability at 0.1 mM measured by ChIP-seq analysis relative to control cells
[16] = target: T1, RNA polymerase II (Mus musculus); experiment: Inhibition of RNA polymerase II in mouse B16-F1 migrating cells assessed as fold change in Hmox2-RNA stability at 0.1 mM measured by ChIP-seq analysis relative to control cells
[17] = target: T1, RNA polymerase II (Mus musculus); experiment: Inhibition of RNA polymerase II in mouse B16-F1 migrating cells assessed as fold change in Eef1g-RNA stability at 0.1 mM measured by ChIP-seq analysis relative to control cells
[18] = target: T1, RNA polymerase II (Mus musculus); experiment: Inhibition of RNA polymerase II in mouse B16-F1 migrating cells assessed as fold change in Shcbp1-RNA stability at 0.1 mM measured by ChIP-seq analysis relative to control cells
[19] = target: T1, RNA polymerase II (Mus musculus); experiment: Inhibition of RNA polymerase II in mouse B16-F1 migrating cells assessed as fold change in Rp2-RNA stability at 0.1 mM measured by ChIP-seq analysis relative to control cells
[20] = target: Histone-lysine N-methyltransferase EZH2 (Mus musculus) (UniProt Q61188); experiment: Inhibition of EZH2 in mouse B16-F1 migrating cells assessed as fold change in H3K27me3-independent regulated Irak2-mRNA expression at 3 uM measured by ChIP-seq analysis relative to control cells
[21] = target: Histone-lysine N-methyltransferase EZH2 (Mus musculus) (UniProt Q61188); experiment: Inhibition of EZH2 in mouse B16-F1 migrating cells assessed as fold change in H3K27me3-buffered regulated Dhcr24-mRNA expression at 3 uM measured by ChIP-seq analysis relative to control cells
[22] = target: Histone-lysine N-methyltransferase EZH2 (Mus musculus) (UniProt Q61188); experiment: Inhibition of EZH2 in mouse B16-F1 migrating cells assessed as fold change in H3K27me3-buffered regulated Hsd17b7-mRNA expression at 3 uM measured by ChIP-seq analysis relative to control cells
[23] = target: Histone-lysine N-methyltransferase EZH2 (Mus musculus) (UniProt Q61188); experiment: Inhibition of EZH2 in mouse B16-F1 migrating cells assessed as fold change in H3K27me3-buffered regulated Krt80-mRNA expression at 3 uM measured by ChIP-seq analysis relative to control cells
[24] = target: Histone-lysine N-methyltransferase EZH2 (Mus musculus) (UniProt Q61188); experiment: Inhibition of EZH2 in mouse B16-F1 migrating cells assessed as fold change in H3K27me3-buffered regulated D630003M21Rik-mRNA expression at 3 uM measured by ChIP-seq analysis relative to control cells
[25] = target: Histone-lysine N-methyltransferase EZH2 (Mus musculus) (UniProt Q61188); experiment: Inhibition of EZH2 in mouse B16-F1 migrating cells assessed as fold change in H3K27me3-buffered regulated Sox11-mRNA expression at 3 uM measured by ChIP-seq analysis relative to control cells
[26] = target: Histone-lysine N-methyltransferase EZH2 (Mus musculus) (UniProt Q61188); experiment: Inhibition of EZH2 in mouse B16-F1 migrating cells assessed as fold change in H3K27me3-independent regulated Shb-mRNA expression at 3 uM measured by ChIP-seq analysis relative to control cells
[27] = target: Histone-lysine N-methyltransferase EZH2 (Mus musculus) (UniProt Q61188); experiment: Inhibition of EZH2 in mouse B16-F1 migrating cells assessed as fold change in H3K27me3-buffered regulated Mt1-mRNA expression at 3 uM measured by ChIP-seq analysis relative to control cells
[28] = target: Histone-lysine N-methyltransferase EZH2 (Mus musculus) (UniProt Q61188); experiment: Inhibition of EZH2 in mouse B16-F1 migrating cells assessed as fold change in H3K27me3-independent regulated Ncald-mRNA expression at 3 uM measured by ChIP-seq analysis relative to control cells
[29] = target: Histone-lysine N-methyltransferase EZH2 (Mus musculus) (UniProt Q61188); experiment: Inhibition of EZH2 in mouse B16-F1 migrating cells assessed as fold change in H3K27me3-buffered regulated Mapk8ip1-mRNA expression at 3 uM measured by ChIP-seq analysis relative to control cells
[30] = target: Histone-lysine N-methyltransferase EZH2 (Mus musculus) (UniProt Q61188); experiment: Inhibition of EZH2 in mouse B16-F1 migrating cells assessed as fold change in H3K27me3-buffered regulated Mvd-mRNA expression at 3 uM measured by ChIP-seq analysis relative to control cells

OC[C@H]1O[C@@H](n2cnc3cc(Cl)c(Cl)cc32)[C@H](O)[C@@H]1O
log2FC [1]: -0.49 | log2FC [2]: -0.64 | log2FC [3]: -0.44 | log2FC [4]: 0.41 | log2FC [5]: 0.59 | log2FC [6]: -0.62 | log2FC [7]: -0.96 | log2FC [8]: -0.55 | log2FC [9]: 0.63 | log2FC [10]: 0.46 | log2FC [11]: 0.83 | log2FC [12]: 0.63 | log2FC [13]: -0.43 | log2FC [14]: 0.69 | log2FC [15]: -0.51 | log2FC [16]: 0.44 | log2FC [17]: 0.42 | log2FC [18]: -0.59 | log2FC [19]: -0.96

CCCc1cc(C)[nH]c(=O)c1CNC(=O)c1cc(-c2ccnc(N3CCN(C)CC3)c2)cc2c1cnn2C(C)C
log2FC [20]: 0.42 | log2FC [21]: 0.39 | log2FC [22]: 0.76 | log2FC [23]: 0.41 | log2FC [24]: 0.41 | log2FC [25]: -0.59 | log2FC [26]: 0.63 | log2FC [27]: 0.43 | log2FC [28]: 0.78 | log2FC [29]: 0.38 | log2FC [30]: 0.45
